For the test, the target named is CI-NTD89-His6 (CI N-terminal domain 1-80 plus linker 81-89) (bacteriophage TP901-1) (UniProt O48503). Kind of test: SEC; Superdex 75 Prep Grad, 20 mM Tris, 100 mM NaCl, pH 7.4; each protein run alone (CI-NTD89-His6 38 uM, MOR 10 uM); both purified.

No constants are given. Whether binding was seen depends on the method and setting. Sequences can lack the tags named with a protein.

B1: CI-NTD89-His6 (CI N-terminal domain 1-80 plus linker 81-89) (domain or fragment, UniProt O48503 1-89)
chain: MKTDTSNRLKQIMAERNLKQVDILNLSIPFQKKFGIKLSKSTLSQYVNSVQSPDQNRIYLLAKTLGVSEAWLMGFDVPMVESSKIENDS
With B1, the binding result is “no binding (tested: 38 μM)”.
